For some assays here: For expression read-outs the peptide stands for its source gene, whose mRNA was measured; the gene is not named for every peptide.
How the values were obtained:
[1] = tested on: HLA molecules from shock-frozen tissue samples (CRC, other tumors, normal tissues); experiment: Identification and label-free relative LC-MS quantitation of HLA-presented tumor associated peptides (presentation profiles, XPRESIDENT); set-up: species or system human; key to Peptide Presentation (presentation score): very highly over-presented on tumors compared to a panel of normal tissues (+++); highly over-presented on tumors compared to a panel of normal tissues (++); over-presented on tumors compared to a panel of normal tissues (+); conditions: for Other relevant organs/diseases: additional tumor types: over-presented on more than 5% of measured tumor samples, or presented on more than 5% with ratio of geometric means tumor vs normal larger than 3; for Peptide Presentation (presentation score): over-presentation on tumors compared to a panel of normal tissues; for Additional Entities (additional tumor types on which the peptide was found): over-presentation on more than 5% of the measured tumor samples, or presentation on more than 5% of the measured tumor samples with ratio of geometric means tumor vs normal tissues larger than 3
[2] = tested on: source genes of the peptides in CRC and normal tissues; experiment: mRNA expression profiling of source genes encoding the peptides (Affymetrix microarrays); set-up: species or system human; key: very highly over-expressed in tumors compared to a panel of normal tissues (+++); highly over-expressed in tumors compared to a panel of normal tissues (++); over-expressed in tumors compared to a panel of normal tissues (+); conditions: over-expression in tumors compared to a panel of normal tissues

Substance	Other relevant organs/diseases [1]	Peptide Presentation (presentation score) [1]	Gene Expression (expression score of source gene) [2]	Additional Entities (additional tumor types on which the peptide was found) [1]	number of cancer tissues with detectable presentation of the peptide ([1]; all samples with detectable presentation, all tumor types)	number of normal tissues with detectable presentation of the peptide ([1]; normal tissue panel as in FIG. 1A-C)
89: peptide found in ITGA6 (gene looked up) (SLIEYEFRV; listed as Homo sapiens) [compound 89]	Liver, Esophagus	++	++			
90: peptide found in EBNA1BP2 (gene looked up) (GLLKPGLNVVL; listed as Homo sapiens) [compound 90]	Lung, Esophagus	+	++	Urinary bladder cancer, AML		
77: peptide found in DDX5 (gene looked up) (SLLKRDFGA; listed as Homo sapiens) [compound 77]	Lung, Breast	+	+	SCLC, Melanoma, Esophageal Cancer, Urinary bladder cancer, Uterine Cancer, NHL		
156: peptide found in TOP2A (gene looked up) (SLMMTIINL; listed as Homo sapiens) [compound 156]	Lung, Liver, Melanoma	++	+++	SCLC, GC, Urinary bladder cancer, Uterine Cancer, Gallbladder Cancer, Bile Duct Cancer, AML, NHL, OC		
147: peptide found in KDM5C (gene looked up) (TLTELRAFL; listed as Homo sapiens) [compound 147]	Kidney		+	CLL, Uterine Cancer, Gallbladder Cancer, Bile Duct Cancer, NHL		
139: peptide found in NCAPG (gene looked up) (VLLNEILEQV; listed as Homo sapiens) [compound 139]	Lung, Liver, Melanoma, Ovary, Esophagus	+	+++	SCLC, CLL, Urinary bladder cancer, Uterine Cancer, AML, NHL, PC		
190: peptide found in NCAPD2 (gene looked up) (AMAEMVLQV; listed as Homo sapiens) [compound 190]	Lung		+	SCLC, CLL, BRCA, Urinary bladder cancer, Gallbladder Cancer, Bile Duct Cancer, AML, NHL		
81: peptide found in TGIF1 (gene looked up) (ALLSQQTHL; listed as Homo sapiens) [compound 81]	Esophagus	++	+	Urinary bladder cancer, AML		
255 (ALALWIPSL; listed as Homo sapiens) [compound 255]	Lung, Pancreas, Ovary, Esophagus					
252: peptide found in FAP (gene looked up) (YVYQNNIYL; listed as Homo sapiens) [compound 252]	Lung, Stomach, Liver, Pancreas, Breast, Melanoma, Ovary, Esophagus	+				
154 (KLPSETIFVGC; listed as Homo sapiens) [compound 154]	Lung, Liver, Leukocytes, Ovary, Esophagus	+		Melanoma, Uterine Cancer, AML		
137 (QLTEIKPLL; listed as Homo sapiens) [compound 137]	Brain, Ovary	+++		CLL, Urinary bladder cancer, Uterine Cancer, Gallbladder Cancer, Bile Duct Cancer, AML, NHL		
10 (RMYNKIFAI; listed as Homo sapiens) [compound 10]	Liver	+++				
95 (AILDAHIEV; listed as Homo sapiens) [compound 95]		+				
117 (TLQPVDNSTISL; listed as Homo sapiens) [compound 117]	Lung, Kidney, Liver, Pancreas, Esophagus			Uterine Cancer, Gallbladder Cancer, Bile Duct Cancer		
259 (ALADKELLPSV; listed as Homo sapiens) [compound 259]	Lung, Kidney, Liver, Pancreas, Prostate, Melanoma, Ovary, Esophagus	+				
83 (LTIEDGIFEV; listed as Homo sapiens) [compound 83]	Kidney, Leukocytes, MCC, Melanoma, Esophagus	+		NHL		
114 (TAVGHALVL; listed as Homo sapiens) [compound 114]				BRCA, Melanoma, Gallbladder Cancer, Bile Duct Cancer		
224 (QLQEGKNVIGL; listed as Homo sapiens) [compound 224]	Pancreas	+++				
56 (VLFTDEGVPKFL; listed as Homo sapiens) [compound 56]	Lung, Kidney, Liver	+		BRCA, Melanoma, Urinary bladder cancer, Uterine Cancer, OC		
209 (KLQDGLLHI; listed as Homo sapiens) [compound 209]	Kidney, Brain, Liver, Pancreas	+++				

Substance	Other relevant organs/diseases [1]	Peptide Presentation (presentation score) [1]	Gene Expression (expression score of source gene) [2]	Additional Entities (additional tumor types on which the peptide was found) [1]	number of cancer tissues with detectable presentation of the peptide ([1]; all samples with detectable presentation, all tumor types)	number of normal tissues with detectable presentation of the peptide ([1]; normal tissue panel as in FIG. 1A-C)
38 (SLAPTPVSA; listed as Homo sapiens) [compound 38]	Pancreas	+++		Uterine Cancer		
155 (RLLGEEVVRV; listed as Homo sapiens) [compound 155]	Esophagus	++		Melanoma		
43 (TLDAAQPRV; listed as Homo sapiens) [compound 43]		++		PrC, Esophageal Cancer		
262 (VLAKPGVISV; listed as Homo sapiens) [compound 262]	Lung, Pancreas					
55 (QIITSVVSV; listed as Homo sapiens) [compound 55]	Pancreas			CLL, Urinary bladder cancer, Uterine Cancer, AML		
182 (SLNKWIFTV; listed as Homo sapiens) [compound 182]				Melanoma		
2 (ALLPRYFFL; listed as Homo sapiens) [compound 2]		+++		Uterine Cancer		
109 (ALDGDQMEL; listed as Homo sapiens) [compound 109]				AML		
188 (FLVDGPRVQL; listed as Homo sapiens) [compound 188]	Breast, Melanoma	+		CLL, Uterine Cancer		
236 (KMSELQTYV; listed as Homo sapiens) [compound 236]	Lung, Pancreas, Melanoma, Ovary, Esophagus	+				
100 (SLDDFLATA; listed as Homo sapiens) [compound 100]		+		PC, CLL, BRCA, Melanoma, Esophageal Cancer, Urinary bladder cancer, Uterine Cancer, Gallbladder Cancer, Bile Duct Cancer		
SEQ ID NO.: 23 (FLDANGHFV; listed as Homo sapiens)					12	3
189 (AISEVIGKITA; listed as Homo sapiens) [compound 189]	Ovary			Gallbladder Cancer, Bile Duct Cancer, PC		
9 (ILDDHLSRV; listed as Homo sapiens) [compound 9]		+++				
33 (ALWEKNTHL; listed as Homo sapiens) [compound 33]	Liver, MCC	+++		Urinary bladder cancer		
164 (KMLDEILLQL; listed as Homo sapiens) [compound 164]	Brain	++		SCLC, RCC, CLL, Melanoma, OC, Urinary bladder cancer, AML, NHL		
197 (SLFGQDVKAV; listed as Homo sapiens) [compound 197]	MCC, Esophagus					
60 (VLDEDEPRFL; listed as Homo sapiens) [compound 60]		+				
99 (KLLEVDLDTV; listed as Homo sapiens) [compound 99]				Gallbladder Cancer, Bile Duct Cancer, AML		
178 (YLFREPATI; listed as Homo sapiens) [compound 178]	Lung, Brain, Liver, Prostate, Melanoma, Ovary, Esophagus	+		BRCA, Urinary bladder cancer, Uterine Cancer, PC		

From US10513547B2, “Peptides and combination of peptides and scaffolds thereof for use in immunotherapy against colorectal carcinoma (CRC) and other cancers” (Immatics Biotechnologies GmbH, priority 2015, dated 2019)
